“Also recorded” adds a separate entry of the source. Part of at least one peptide drawing is inferred or uncertain, most often the ends. Ends that are not written are not given here.
Experiments:
Elk-1 [1] = assay: Serum-induced P-Elk-1 in HEK cells, immunocytochemistry; format: cell-based; conditions: peptide 10 μM for 40 minutes, serum 20 minutes
Method: HEK cells are placed in the presence of the peptide P2 (FIG. 4, middle panels) or P1 (FIG. 4, right panels), at the concentration of 10 μM for 40 minutes. Nontreated cells (without peptide) are used as controls (FIG. 4, left panels).
The cells are then treated for 20 minutes using fetal calf serum (serum) in order to activate the MAP kinase/ERK pathway.
The corresponding nuclei are visualized by means of the same star on the panels of the third line, marked Hoechst.

Elk-1 [2] = assay: Serum-induced activation of Elk-1 (P-Elk-1) in HEK cells, Western blotting; format: cell-based; conditions: then serum 10%; for inhibition of the induction of P-Elk-1 by serum: 40 minutes

GRKKRRQRRRPPSPAKLSFQFPSGSAQVHI [Peptide P2]
induction of P-Elk-1 (phosphorylation of Elk-1) in response to serum (Elk-1 [1]): Inhibited; also recorded: absence of induction of P-Elk-1
inhibition of the induction of P-Elk-1 by serum (Elk-1 [2]; peptide 1 μM): absent
inhibition of the induction of P-Elk-1 by serum (Elk-1 [2]; peptide 10 μM): completely inhibited
inhibition of Elk-1 (Elk-1 [2]; peptide higher doses 50;100 μM): effective
